Assay: Proteomics analysis (trypsin digest, LC-MS/MS) of hMSC ghosts and derived CDLs, conditioned or unconditioned by PC3 medium
Set-up: species or system human
Settings: LC-MS/MS peak area per protein; for Ratio of expression Cond. CDLs/Cond. Ghosts: CDLs derived from conditioned hMSCs versus conditioned ghosts; for Ratio of expression Cond Ghosts/Ghosts: hMSC ghosts conditioned by PC3 medium versus unconditioned ghosts

Molecule	Ratio of expression Cond. CDLs/Cond. Ghosts [%]	Ratio of expression Cond Ghosts/Ghosts [%]
Q9UKM9 (protein, UniProt Q9UKM9 1-306, looked up, full-length) MSLKLQASNVTNKNDPKSINSRVFIGNLNTALVKKSDVETIFSKYGRVAGCSVHKGYAFVQYSNERHARAAVLGENGRVLAGQTLDINMAGEPKPDRPKGLKRAASAIYSGYIFDYDYYRDDFYDRLFDYRGRLSPVPVPRAVPVKRPRVTVPLVRRVKTNVPVKLFARSTAVTTSSAKIKLKSSELQAIKTELTQIKSNIDALLSRLEQIAAEQKANPDGKKKGDGGGAGGGGGGGGSGGGGSGGGGGGGSSRPPAPQENTTSEAGLPQGEARTRDDGDEEGLLTHSEEELEHSQDTDADDGALQ	6	100
P51991 (protein, UniProt P51991 1-378, looked up, full-length) MEVKPPPGRPQPDSGRRRRRRGEEGHDPKEPEQLRKLFIGGLSFETTDDSLREHFEKWGTLTDCVVMRDPQTKRSRGFGFVTYSCVEEVDAAMCARPHKVDGRVVEPKRAVSREDSVKPGAHLTVKKIFVGGIKEDTEEYNLRDYFEKYGKIETIEVMEDRQSGKKRGFAFVTFDDHDTVDKIVVQKYHTINGHNCEVKKALSKQEMQSAGSQRGRGGGSGNFMGRGGNFGGGGGNFGRGGNFGGRGGYGGGGGGSRGSYGGGDGGYNGFGGDGGNYGGGPGYSSRGGYGGGGPGYGNQGGGYGGGGGYDGYNEGGNFGGGNYGGGGNYNDFGNYSGQQQSNYGPMKGGSFGGRSSGSPYGGGYGSGGGSGGYGSRRF	6	100
P04899 (protein, UniProt P04899 1-355, looked up, full-length) MGCTVSAEDKAAAERSKMIDKNLREDGEKAAREVKLLLLGAGESGKSTIVKQMKIIHEDGYSEEECRQYRAVVYSNTIQSIMAIVKAMGNLQIDFADPSRADDARQLFALSCTAEEQGVLPDDLSGVIRRLWADHGVQACFGRSREYQLNDSAAYYLNDLERIAQSDYIPTQQDVLRTRVKTTGIVETHFTFKDLHFKMFDVGGQRSERKKWIHCFEGVTAIIFCVALSAYDLVLAEDEEMNRMHESMKLFDSICNNKWFTDTSIILFLNKKDLFEEKITHSPLTICFPEYTGANKYDEAASYIQSKFEDLNKRKDTKEIYTHFTCATDTKNVQFVFDAVTDVIIKNNLKDCGLF	6	100
Q15019 (protein, UniProt Q15019 1-361, looked up, full-length) MSKQQPTQFINPETPGYVGFANLPNQVHRKSVKKGFEFTLMVVGESGLGKSTLINSLFLTDLYPERVIPGAAEKIERTVQIEASTVEIEERGVKLRLTVVDTPGYGDAINCRDCFKTIISYIDEQFERYLHDESGLNRRHIIDNRVHCCFYFISPFGHGLKPLDVAFMKAIHNKVNIVPVIAKADTLTLKERERLKKRILDEIEEHNIKIYHLPDAESDEDEDFKEQTRLLKASIPFSVVGSNQLIEAKGKKVRGRLYPWGVVEVENPEHNDFLKLRTMLITHMQDLQEVTQDLHYENFRSERLKRGGRKVENEDMNKDQILLEKEAELRRMQEMIARMQAQMQMQMQGGDGDGGALGHHV	5	100
Q13011 (protein, UniProt Q13011 1-328, looked up, full-length) MAAGIVASRRLRDLLTRRLTGSNYPGLSISLRLTGSSAQEEASGVALGEAPDHSYESLRVTSAQKHVLHVQLNRPNKRNAMNKVFWREMVECFNKISRDADCRAVVISGAGKMFTAGIDLMDMASDILQPKGDDVARISWYLRDIITRYQETFNVIERCPKPVIAAVHGGCIGGGVDLVTACDIRYCAQDAFFQVKEVDVGLAADVGTLQRLPKVIGNQSLVNELAFTARKMMADEALGSGLVSRVFPDKEVMLDAALALAAEISSKSPVAVQSTKVNLLYSRDHSVAESLNYVASWNMSMLQTQDLVKSVQATTENKELKTVTFSKL	5	100
P00558 (protein, UniProt P00558 1-417, looked up, full-length) MSLSNKLTLDKLDVKGKRVVMRVDFNVPMKNNQITNNQRIKAAVPSIKFCLDNGAKSVVLMSHLGRPDGVPMPDKYSLEPVAVELKSLLGKDVLFLKDCVGPEVEKACANPAAGSVILLENLRFHVEEEGKGKDASGNKVKAEPAKIEAFRASLSKLGDVYVNDAFGTAHRAHSSMVGVNLPQKAGGFLMKKELNYFAKALESPERPFLAILGGAKVADKIQLINNMLDKVNEMIIGGGMAFTFLKVLNNMEIGTSLFDEEGAKIVKDLMSKAEKNGVKITLPVDFVTADKFDENAKTGQATVASGIPAGWMGLDCGPESSKKYAEAVTRAKQIVWNGPVGVFEWEAFARGTKALMDEVVKATSRGCITIIGGGDTATCCAKWNTEDKVSHVSTGGGASLELLEGKVLPGVDALSNI	5	100
O75439 (protein, UniProt O75439 1-489, looked up, full-length) MAAAAARVVLSSAARRRLWGFSESLLIRGAAGRSLYFGENRLRSTQAATQVVLNVPETRVTCLESGLRVASEDSGLSTCTVGLWIDAGSRYENEKNNGTAHFLEHMAFKGTKKRSQLDLELEIENMGAHLNAYTSREQTVYYAKAFSKDLPRAVEILADIIQNSTLGEAEIERERGVILREMQEVETNLQEVVFDYLHATAYQNTALGRTILGPTENIKSISRKDLVDYITTHYKGPRIVLAAAGGVSHDELLDLAKFHFGDSLCTHKGEIPALPPCKFTGSEIRVRDDKMPLAHLAIAVEAVGWAHPDTICLMVANTLIGNWDRSFGGGMNLSSKLAQLTCHGNLCHSFQSFNTSYTDTGLWGLYMVCESSTVADMLHVVQKEWMRLCTSVTESEVARARNLLKTNMLLQLDGSTPICEDIGRQMLCYNRRIPIPELEARIDAVNAETIREVCTKYIYNRSPAIAAVGPIKQLPDFKQIRSNMCWLRD	5	100
P43304 (protein, UniProt P43304 1-727, looked up, full-length) MAFQKAVKGTILVGGGALATVLGLSQFAHYRRKQMNLAYVKAADCISEPVNREPPSREAQLLTLQNTSEFDILVIGGGATGSGCALDAVTRGLKTALVERDDFSSGTSSRSTKLIHGGVRYLQKAIMKLDIEQYRMVKEALHERANLLEIAPHLSAPLPIMLPVYKWWQLPYYWVGIKLYDLVAGSNCLKSSYVLSKSRALEHFPMLQKDKLVGAIVYYDGQHNDARMNLAIALTAARYGAATANYMEVVSLLKKTDPQTGKVRVSGARCKDVLTGQEFDVRAKCVINATGPFTDSVRKMDDKDAAAICQPSAGVHIVMPGYYSPESMGLLDPATSDGRVIFFLPWQKMTIAGTTDTPTDVTHHPIPSEEDINFILNEVRNYLSCDVEVRRGDVLAAWSGIRPLVTDPKSADTQSISRNHVVDISESGLITIAGGKWTTYRSMAEDTINAAVKTHNLKAGPSRTVGLFLQGGKDWSPTLYIRLVQDYGLESEVAQHLAATYGDKAFEVAKMASVTGKRWPIVGVRLVSEFPYIEAEVKYGIKEYACTAVDMISRRTRLAFLNVQAAEEALPRIVELMGRELNWDDYKKQEQLETARKFLYYEMGYKSRSEQLTDRSEISLLPSDIDRYKKRFHKFDADQKGFITIVDVQRVLESINVQMDENTLHEILNEVDLNKNGQVELNEFLQLMSAIQKGRVSGSRLAILMKTAEENLDRRVPIPVDRSCGGL	5	100
P18084 (protein, UniProt P18084 1-799, looked up, full-length) MPRAPAPLYACLLGLCALLPRLAGLNICTSGSATSCEECLLIHPKCAWCSKEDFGSPRSITSRCDLRANLVKNGCGGEIESPASSFHVLRSLPLSSKGSGSAGWDVIQMTPQEIAVNLRPGDKTTFQLQVRQVEDYPVDLYYLMDLSLSMKDDLDNIRSLGTKLAEEMRKLTSNFRLGFGSFVDKDISPFSYTAPRYQTNPCIGYKLFPNCVPSFGFRHLLPLTDRVDSFNEEVRKQRVSRNRDAPEGGFDAVLQAAVCKEKIGWRKDALHLLVFTTDDVPHIALDGKLGGLVQPHDGQCHLNEANEYTASNQMDYPSLALLGEKLAENNINLIFAVTKNHYMLYKNFTALIPGTTVEILDGDSKNIIQLIINAYNSIRSKVELSVWDQPEDLNLFFTATCQDGVSYPGQRKCEGLKIGDTASFEVSLEARSCPSRHTEHVFALRPVGFRDSLEVGVTYNCTCGCSVGLEPNSARCNGSGTYVCGLCECSPGYLGTRCECQDGENQSVYQNLCREAEGKPLCSGRGDCSCNQCSCFESEFGKIYGPFCECDNFSCARNKGVLCSGHGECHCGECKCHAGYIGDNCNCSTDISTCRGRDGQICSERGHCLCGQCQCTEPGAFGEMCEKCPTCPDACSTKRDCVECLLLHSGKPDNQTCHSLCRDEVITWVDTIVKDDQEAVLCFYKTAKDCVMMFTYVELPSGKSNLTVLREPECGNTPNAMTILLAVVGSILLVGLALLAIWKLLVTIHDRREFAKFQSERSRARYEMASNPLYRKPISTHTVDFTFNKFNKSYNGTVD	5	100
Q7Z7H5 (protein, UniProt Q7Z7H5 1-227, looked up, full-length) MAGVGAGPLRAMGRQALLLLALCATGAQGLYFHIGETEKRCFIEEIPDETMVIGNYRTQMWDKQKEVFLPSTPGLGMHVEVKDPDGKVVLSRQYGSEGRFTFTSHTPGDHQICLHSNSTRMALFAGGKLRVHLDIQVGEHANNYPEIAAKDKLTELQLRARQLLDQVEQIQKEQDYQRYREERFRLTSESTNQRVLWWSIAQTVILILTGIWQMRHLKSFFEAKKLV	5	100
Q14554 (protein, UniProt Q14554 1-519, looked up, full-length) MARAGPAWLLLAIWVVLPSWLSSAKVSSLIERISDPKDLKKLLRTRNNVLVLYSKSEVAAENHLRLLSTVAQAVKGQGTICWVDCGDAESRKLCKKMKVDLSPKDKKVELFHYQDGAFHTEYNRAVTFKSIVAFLKDPKGPPLWEEDPGAKDVVHLDSEKDFRRLLKKEEKPLLIMFYAPWCSMCKRMMPHFQKAATQLRGHAVLAGMNVYSSEFENIKEEYSVRGFPTICYFEKGRFLFQYDNYGSTAEDIVEWLKNPQPPQPQVPETPWADEGGSVYHLTDEDFDQFVKEHSSVLVMFHAPWCGHCKKMKPEFEKAAEALHGEADSSGVLAAVDATVNKALAERFHISEFPTLKYFKNGEKYAVPVLRTKKKFLEWMQNPEAPPPPEPTWEEQQTSVLHLVGDNFRETLKKKKHTLVMFYAPWCPHCKKVIPHFTATADAFKDDRKIACAAVDCVKDKNQDLCQQEAVKGYPTFHYYHYGKFAEKYDSDRTELGFTNYIRALREGDHERLGKKKEEL	5	100

Reference: patent US11065203B2, “Liposomal compositions and uses of same” (Technion Research & Development Foundation Limited, priority 2009, dated 2021)
